{
  "source": "PubChem BioAssay AID1347076",
  "about": "(National Center for Advancing Translational Sciences (NCATS), 2019)",
  "note": "Among all 400,000 compounds or so, about 13,000 (3.2%) were called active. The shares of active, inactive and inconclusive entries below differ from those in the screen. Calls follow the shape of the dose curve; as a rule, active = well fitted cell-killing curve with a large enough effect; inconclusive = small, poorly fitted or top-dose-only effect, or effect the other way; inactive = flat fitted curve, though single readings scatter. Potencies of inconclusive entries are doubtful fits and often do not repeat. Potency is read from the fitted curve at half-maximal effect.",
  "data": [
    {"assay": "qHTS assay for MDR1-selective chemotherapeutics: Primary screen using the drug-selected MDR subline cells KB-V1; also: nearly all actives have a fitted effect of over 60% in size", "details": "KB-V1 MDR cells viability, CellTiter-Glo, 72 h; series mostly up to 46.1 µM", "how_it_was_run": "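In this primary screen, KB-V1 cells overexpressing P-gp are incubated with library compounds (lowest to highest concentration) for 72 h at 37 degrees C before a luminescent ATP viability read.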", "values": [
      {"compound": "O=C(c1ccccc1F)N1CCN(Cc2nc3sc4c(c3c(=O)[nH]2)CCCC4)CC1", "Potency": "inconclusive: 16.4 µM [cytotoxic, partial curve, poor fit]"},
      {"compound": "COc1ccc(F)cc1S(=O)(=O)N1CCC2(CC1)OCCN2S(=O)(=O)c1ccccc1", "Potency": "inconclusive: 18.4 µM [cytotoxic, single point]"},
      {"compound": "CCCS(=O)(=O)NC(=O)C1(C)CCN(C(=O)c2ccccc2F)C1", "note": "(configuration not stated)", "Potency": "inactive"},
      {"compound": "O=C(CC1S/C(=N/N=C/c2cccnc2)NC1=O)Nc1ccccc1", "note": "(configuration not stated)", "Potency": "inactive"},
      {"compound": "N#C/C(=C(/O)COC(=O)CCC1CCCCC1)c1nc2ccccc2[nH]1", "Potency": "inactive"},
      {"compound": "Cc1cc(C)c(Cn2c(C(O)c3ccccc3)nc3ccccc32)c(C)c1", "note": "(configuration not stated)", "Potency": "inconclusive: 29.1 µM [cytotoxic, single point]"},
      {"compound": "CC[C@]12C(=O)N(C)C[C@H]([C@@H]3C(=O)N(Cc4ccccc4)C(=O)[C@@H]31)N2C(=O)c1ccccc1", "Potency": "inconclusive: 29.1 µM [rising, single point]"},
      {"compound": "CN(CC(=O)Nc1c(Cl)cccc1Cl)C(=O)CC1Sc2ccccc2NC1=O", "note": "(configuration not stated)", "Potency": "inconclusive: 13 µM [cytotoxic, partial curve, poor fit]"},
      {"compound": "CN(C)c1nc(NCc2ccccc2)nc(SCC(=O)Nc2ccccc2)n1", "Potency": "inconclusive: 20.6 µM [cytotoxic, single point]"},
      {"compound": "CCCCC1CCC(C(=O)N(C)CC(=O)Nc2cccc(OC)c2)CC1", "note": "(configuration not stated)", "Potency": "inconclusive: 29.1 µM [rising, single point]"},
      {"compound": "Cc1cccc(C(=O)OCC(=O)N2CCCC2=O)c1[N+](=O)[O-]", "Potency": "inconclusive: 20.6 µM [rising, single point]"},
      {"compound": "CCOC(=O)Nc1ccc2c(CN3CCN(S(=O)(=O)c4ccccc4F)CC3)cc(=O)oc2c1", "Potency": "inconclusive: 20.6 µM [cytotoxic, partial curve, poor fit]"},
      {"compound": "CC(C)(C)C(=O)/C=C(\\N)c1ccccn1", "Potency": "inconclusive: 29.1 µM [cytotoxic, partial curve, poor fit]"},
      {"compound": "CCNC(=O)NC(=O)CSc1nc2ccccc2n1CC(C)C", "Potency": "active: 2.91 µM"},
      {"compound": "Cc1ccc(C(=O)NCCc2nnc3ccc(NCc4ccc5c(c4)OCO5)nn23)cc1", "Potency": "inactive"},
      {"compound": "c1ccc(CN2CCN(c3nc(-c4ccccn4)nc4ccccc34)CC2)cc1", "Potency": "inactive"},
      {"compound": "N#C/C(=C\\c1cccnc1)C(=O)Nc1cccc2ccccc12", "Potency": "inactive"},
      {"compound": "Cc1ccccc1OCC(=O)N1N=C(C(F)(F)F)CC1(O)C(C)(C)C", "note": "(configuration not stated)", "Potency": "inconclusive: 18.4 µM [cytotoxic, single point]"},
      {"compound": "CN(C)c1ccc(NS(=O)(=O)c2cccc(Cl)c2)cc1", "Potency": "inconclusive: 29.1 µM [cytotoxic, single point]"},
      {"compound": "Cc1cc(NC(=O)Cn2cnc3c2c(=O)n(C)c(=O)n3C)n(-c2ccccc2)n1", "Potency": "inconclusive: 32.6 µM [rising, partial curve, poor fit]"},
      {"compound": "CN(C(=O)c1ccncc1)C1CCCN(Cc2ccccc2F)C1", "note": "(configuration not stated)", "Potency": "inconclusive: 25.9 µM [rising, single point]"},
      {"compound": "CCNc1c(NC(=O)c2cc(OCC)c(OCC)c(OCC)c2)c(=O)oc2ccccc12", "Potency": "inactive"},
      {"compound": "S=C(NCCCCN(Cc1ccc(Cl)cc1)c1ccc(Br)cn1)NCCCc1cnc[nH]1", "Potency": "inactive"},
      {"compound": "O=C1C(Cc2c[nH]c3ccccc23)NC(=S)N1C1CCCCC1", "note": "(configuration not stated)", "Potency": "inconclusive: 14.6 µM [cytotoxic, partial curve, poor fit]"},
      {"compound": "CCOC(=O)c1c(-c2ccc(OC)cc2)oc2ccc(OCc3ccc(C(=O)OC)cc3)cc12", "Potency": "inactive"},
      {"compound": "Cc1cc(C)n(CCc2nc(-c3cc4ccccc4o3)cs2)n1", "Potency": "active: 16.4 µM"},
      {"compound": "CN(C)S(=O)(=O)c1cccc(NC(=S)Nc2ccc(Cl)cc2Cl)c1", "Potency": "inconclusive: 20.6 µM [cytotoxic, single point]"},
      {"compound": "COc1ccc(CN2CCC(=O)N([C@H](CO)c3ccccc3)CC2)cc1", "Potency": "inconclusive: 29.1 µM [cytotoxic, single point]"},
      {"compound": "COc1ccc(NS(=O)(=O)c2cccc3nonc23)c(OC)c1", "Potency": "inconclusive: 20.6 µM [cytotoxic, partial curve, poor fit]"},
      {"compound": "CC(NC(=O)C(=O)Nc1c2c(nn1-c1ccc(F)cc1)CSC2)c1ccccc1", "note": "(configuration not stated)", "Potency": "inactive"},
      {"compound": "O=C1/C(=C/c2ccccc2)Oc2cc(OC(=O)N3CCOCC3)ccc21", "Potency": "active: 20.6 µM"},
      {"compound": "O=C(Nc1nc(-c2ccc(F)c(F)c2)cs1)c1ccc(OCC2CCCO2)cc1", "note": "(configuration not stated)", "Potency": "inconclusive: 2.06 µM [cytotoxic, partial curve, poor fit]"},
      {"compound": "COc1ccccc1-c1ncn(Cc2cccc(-c3ccccc3)c2)c1CC(C)C", "Potency": "active: 16.4 µM"},
      {"compound": "Cc1nnc(-c2cccc(Br)c2)c2cn(-c3ccccc3Cl)nc12", "Potency": "inconclusive: 23.1 µM [cytotoxic, single point]"},
      {"compound": "O=C(COC(=O)c1ccccc1)Nc1ccc2[nH]c(=O)[nH]c2c1", "Potency": "inconclusive: 29.1 µM [rising, single point]"},
      {"compound": "CC(=O)c1ccc(N2CCN(C(=S)Nc3ccccc3C(F)(F)F)CC2)cc1", "Potency": "inconclusive: 16.4 µM [cytotoxic, single point]"},
      {"compound": "O=C(NCCCN1CCCC1=O)c1cc(S(=O)(=O)N2CCN(c3ccccc3)CC2)ccc1Cl", "Potency": "inconclusive: 20.6 µM [cytotoxic, single point]"},
      {"compound": "COc1cccc(CNC(=O)CCn2cccn2)c1", "Potency": "inactive"},
      {"compound": "COc1cc(OC)cc(C(=O)Nc2cccc3nc(C)ccc23)c1", "Potency": "inconclusive: 29.1 µM [rising, single point]"},
      {"compound": "O=[N+]([O-])c1ccc(Sc2nnnn2-c2ccccc2)nc1", "Potency": "inconclusive: 29.1 µM [cytotoxic, single point]"},
      {"compound": "Cc1ccc(NS(=O)(=O)c2ccccc2Cl)c2c1CC(C)(C)O2", "Potency": "inconclusive: 35.5 µM [cytotoxic, single point]"},
      {"compound": "COC(=O)[C@]12CCCCC=C1N(Cc1ccco1)C(=O)[C@H](CC(=O)NCc1ccccc1)C2", "Potency": "inconclusive: 0.0073 µM [cytotoxic, full curve, poor fit]"},
      {"compound": "Cc1ccc(CC(=O)NCc2ccc(F)cc2)cc1", "Potency": "inconclusive: 8.2 µM [cytotoxic, partial curve]"},
      {"compound": "CCOc1ccc(-c2cc(C(=O)Nc3ccc(C)c(NS(C)(=O)=O)c3)[nH]n2)c(C)c1", "Potency": "inconclusive: 8.2 µM [cytotoxic, partial curve, poor fit]"},
      {"compound": "O=C(CN1CCN(c2ccccn2)CC1)N1c2ccccc2CCc2ccccc21", "Potency": "active: 5.8 µM"},
      {"compound": "Cc1ccc(-c2noc(C3CCN(S(C)(=O)=O)CC3)n2)o1", "Potency": "inconclusive: 23.1 µM [cytotoxic, single point]"},
      {"compound": "COc1cccc(C(=O)Nc2ccncc2)c1OC", "Potency": "inconclusive: 29.1 µM [cytotoxic, single point]"},
      {"compound": "O=C(N/N=C/c1ccc(Br)o1)c1cc([N+](=O)[O-])cc([N+](=O)[O-])c1", "Potency": "inconclusive: 29.1 µM [cytotoxic, single point]"},
      {"compound": "CNC(=S)N(CCc1cccc(C)c1)Cc1cc2cc(OC)c(OC)cc2[nH]c1=O", "Potency": "inconclusive: 11.6 µM [cytotoxic, partial curve, poor fit]"},
      {"compound": "Cn1nnnc1Sc1ncnc2scc(-c3cccc(C(F)(F)F)c3)c12", "Potency": "inconclusive: 32.6 µM [cytotoxic, partial curve, poor fit]"},
      {"compound": "COc1cc(/C=N/N2CCCCC2)cc(OC)c1O", "Potency": "inactive"},
      {"compound": "CCN(CC)/C(N)=N/c1nc(C)cc(C)n1", "Potency": "inactive"},
      {"compound": "CCOc1cccc2sc(NC(=O)CCS(=O)(=O)c3ccccc3)nc12", "Potency": "inconclusive: 29.1 µM [cytotoxic, single point]"},
      {"compound": "Cc1ccc(S(=O)(=O)N2CCCCC2CCNC(=O)C(=O)NCc2ccncc2)cc1", "note": "(configuration not stated)", "Potency": "inconclusive: 11.6 µM [cytotoxic, partial curve]"},
      {"compound": "Cc1c(C(=O)Nc2ccccc2)c2ccc(C(F)(F)F)cc2n1O", "Potency": "inconclusive: 23.1 µM [cytotoxic, single point]"},
      {"compound": "CC1CCc2cc(F)ccc2N1C(=O)c1cccs1", "note": "(configuration not stated)", "Potency": "inconclusive: 0.0103 µM [rising, full curve, poor fit]"},
      {"compound": "COc1ccc(Nc2ccc(S(=O)(=O)N3CCCCC3)cc2[N+](=O)[O-])cc1Cl", "Potency": "inconclusive: 8.2 µM [cytotoxic, partial curve]"},
      {"compound": "Cn1c(Cc2ccccc2)nnc1SCc1cc(=O)n2ccsc2n1", "Potency": "inactive"},
      {"compound": "Cc1ccc(-n2c(=O)c3c(c4cc(C)ccc4n3C)n(CC(=O)Nc3cc(C)cc(C)c3)c2=O)cc1", "Potency": "inactive"},
      {"compound": "C=CCN([C@@H](CC(C)C)C(=O)OC)S(=O)(=O)N(CC=C)[C@@H](CC(C)C)C(=O)OC", "Potency": "inconclusive: 9.2 µM [cytotoxic, partial curve]"},
      {"compound": "Cc1ccc(N2C(=O)N3[C@H]4c5ccccc5OC[C@@H]4[C@@H](c4ccccc4)[C@@]3(C)C2=O)cc1", "Potency": "inconclusive: 29.1 µM [cytotoxic, single point]"},
      {"compound": "O=C(NC(c1ccc(-c2ccccc2)cc1)c1cnccn1)C1CCN(CCN2C(=O)c3ccccc3C2=O)CC1", "note": "(configuration not stated)", "Potency": "inactive"},
      {"compound": "Cc1ccc(C)c(NC(=O)CSc2nnc(CNC(=O)c3ccco3)o2)c1", "Potency": "inconclusive: 6.51 µM [rising, partial curve]"},
      {"compound": "Cc1ccc(S(=O)(=O)NN=C2CCC(C(C)(C)C)CC2)cc1[N+](=O)[O-]", "note": "(configuration not stated)", "Potency": "inactive"},
      {"compound": "COc1cccc(N(CC(=O)NC2CC3CCC2C3)S(=O)(=O)c2ccccc2)c1", "note": "(configuration not stated)", "Potency": "inconclusive: 2.59 µM [cytotoxic, full curve]"},
      {"compound": "N#CC1=C(N)N(c2ccccc2)C(=O)C1", "Potency": "inconclusive: 13 µM [rising, partial curve, poor fit]"},
      {"compound": "Cc1ccc(NC(=O)[C@H](Cc2c[nH]c3ccccc23)NC(=O)[C@@H]2Cc3ccccc3CN2)c(C)c1", "Potency": "inconclusive: 25.9 µM [cytotoxic, single point]"}
    ]}
  ]
}
